Source: PMC11967829

Chains of the proteins cited; added tags and fusions are not shown.
UniProt P06733: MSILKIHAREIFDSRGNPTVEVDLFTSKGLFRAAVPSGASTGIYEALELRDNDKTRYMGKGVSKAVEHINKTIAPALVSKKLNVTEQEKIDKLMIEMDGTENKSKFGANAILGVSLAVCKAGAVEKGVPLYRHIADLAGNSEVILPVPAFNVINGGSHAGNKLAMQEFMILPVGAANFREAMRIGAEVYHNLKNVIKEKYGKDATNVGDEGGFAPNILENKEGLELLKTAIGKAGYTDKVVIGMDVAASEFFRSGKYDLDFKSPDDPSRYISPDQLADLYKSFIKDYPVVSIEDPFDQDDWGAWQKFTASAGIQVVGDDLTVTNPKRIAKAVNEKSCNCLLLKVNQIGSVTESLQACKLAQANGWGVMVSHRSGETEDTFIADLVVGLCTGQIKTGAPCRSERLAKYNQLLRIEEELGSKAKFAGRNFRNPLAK

Target: T1, NUDT13 immunoprecipitated from DLD-1 cells (human) (UniProt Q86X67)
T1 sequence: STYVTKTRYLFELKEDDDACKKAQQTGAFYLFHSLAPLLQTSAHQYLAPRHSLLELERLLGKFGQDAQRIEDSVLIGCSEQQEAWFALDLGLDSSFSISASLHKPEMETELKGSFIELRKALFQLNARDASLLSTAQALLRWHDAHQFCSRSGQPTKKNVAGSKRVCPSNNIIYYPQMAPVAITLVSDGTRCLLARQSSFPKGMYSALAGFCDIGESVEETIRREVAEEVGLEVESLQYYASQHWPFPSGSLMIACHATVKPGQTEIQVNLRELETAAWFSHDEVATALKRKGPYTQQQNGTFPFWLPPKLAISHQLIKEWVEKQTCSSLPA
Assay: affinity purification with mass spectrometry; NUDT13 immunoprecipitation from protein extracts of DLD-1 cells, silver stain, mass spectrum analysis

binding: binds
Substance: ENO1 (from UniProt P06733 1-434)

No constants are given. Whether binding was seen depends on the method and setting. Binding seen in cells or lysates may run through a third protein. These calls come from enrichment with a bait or labelling near it, and not all partners need be listed.
